Changes are numbered by the printed parent chain. Results are given in words; binding and its absence hold for the method and conditions named. Binding seen in cells or lysates may run through a third protein. Some entries that bind do so weakly or less than the wild type. Where a sequence is shown, tags or fusion partners need not be part of it.
Columns and labels:
CCR9-RlucII (human) [1] = target: T1, CCR9-RlucII (human) (UniProt P51686); assay: FRET or BRET; as a2, but in HEK293 ΔGRK2/3/5/6 cells (no GRK phosphorylation of the receptor); 200 nM CCL25 or a titration of CCL25
T1 sequence: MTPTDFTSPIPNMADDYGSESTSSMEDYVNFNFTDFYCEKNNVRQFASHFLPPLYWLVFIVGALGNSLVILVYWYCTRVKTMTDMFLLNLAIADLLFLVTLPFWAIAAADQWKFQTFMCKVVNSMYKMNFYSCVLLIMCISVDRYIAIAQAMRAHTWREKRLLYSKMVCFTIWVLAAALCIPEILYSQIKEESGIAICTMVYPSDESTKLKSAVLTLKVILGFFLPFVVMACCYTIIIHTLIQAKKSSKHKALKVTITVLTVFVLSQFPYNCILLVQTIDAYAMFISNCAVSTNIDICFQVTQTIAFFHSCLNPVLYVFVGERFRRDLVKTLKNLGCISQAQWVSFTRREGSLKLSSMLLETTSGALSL

[2] = target: T2, CCR9 C2 (CCR9-RlucII with T362A/T363A/S364A/S368A) (human) (UniProt P51686); assay: FRET or BRET; live HEK293 cells (parental; also ΔGRK2/3 and ΔGRK5/6 cells, where recruitment was only partially impacted) co-transfected with CCR9-RlucII (WT or ST/A mutants) and GFP10-β-arrestin2; 200 nM CCL25 or a titration of CCL25; HBSS + 0.1% BSA, Prolume Purple, 37 °C
T2 sequence: T1 sequence with T362A, T363A, S364A, S368A

CCR9-RlucII (human) [3] = target: T1, CCR9-RlucII (human); assay: as above

binding (CCR9-RlucII (human) [1]): binds weakly
binding [2]: binds
binding (CCR9-RlucII (human) [3]): binds
Substance: GFP10-β-arrestin2 (from UniProt P32121 1-409)
